Results published in US10624913B2, “Diagnostics and methods for treatment of non-alcoholic hepatic steatosis and hepatic steatohepatitis, and prevention of complications thereof” (VOLANT HOLDINGS GMBH, priority 2011, dated 2020).
Where a name gives a salt, the structure may show the parent alone.

How the values were obtained:
[1] = test system: patients with multiple manifestations of MetS; assay: Treatment comparison of RYGB, Brake or atorvastatin (Lipitor), each added to standard of care (Example 3); type: in vivo, human; conditions: before, at 6 and 12 months; result in words
Source text: FIG. 20. The mean age in the Brake™ plus SOC group was 50±11 years with a mean BMI of 34±5.8 and the majority of subjects were female (68%). […] Except for this large difference in baseline weight in RYGB patients, baseline metabolic characteristics were similar between case cohorts. […] There were no other significant differences in baseline lipid indices. The RYGB plus SOC group had the highest percentage of patients on diabetic or cardiovascular medications. […] All patients were given 10 gm Brake™ once Daily, orally, 4 hrs prior to their main meal Pertinent demographic and clinical data were retrieved from medical records for all patients, and shown in FIG. 21. Variables included age, gender, body weight, lipid panel (low-density lipoprotein [LDL], high-density lipoprotein [HDL], triglycerides [TG], and total cholesterol [TC]), HbA1c, and liver function tests (aspartate aminotransferase [AST] and alanine aminotransferase [ALT]). […] From the beginning, the patients who began the study with abnormal findings were separated from the patients with initially normal values and those with abnormal findings were further analyzed to define the magnitude of change as well as the percent change from baseline pre-therapy. […] Data were subsequently analyzed for percent change by biomarker from both of these two perspectives. […]

[2] = test system: metabolic syndrome / cardiovascular risk (FS index, CV index); assay: Cross comparison of FS index and CV index in treated patients (Example 2); type: in vivo, human; conditions: before, at 6 and 12 months, added to SoC, words

Compound: CC(C)c1c(C(=O)Nc2ccccc2)c(-c2ccccc2)c(-c2ccc(F)cc2)n1CC[C@@H](O)C[C@@H](O)CC(=O)O (relative stereo) [atorvastatin, [R—(R*,R*)]-2-(4-fluorophenyl)-β,δ-dihydroxy-5-(l-methylethyl)-3-phenyl-4-[(phenylamino)-carbonyl]-1H-pyrrole-1-heptanoic acid; calcium salt (2:1) trihydrate]
- Changes in HbA1c over pre-treatment baseline [1]: not
- Changes in CV index over pre-treatment baseline [2]: not
- Changes in FS index over pre-treatment baseline ([2]; trihydrate): not and did not change the FS index
